Assay results from patent US20230263809A1, “FOOD SUPPLEMENT FOR ALZHEIMER” (FOLIUM BIOSCIENCES EUROPE B.V., priority 2019, published 2023).
Some results were stated once for a whole list of compounds, not compound by compound.

System: Amyloid-β depositions
Assay: Diminishing of Amyloid-β depositions on uptake of phytosterols
Type: in vivo
Conditions: uptake of the phytosterol

## C/C=C(\CC[C@@H](C)[C@H]1CC[C@H]2[C@@H]3CC=C4C[C@@H](O)CC[C@]4(C)[C@H]3CC[C@]12C)C(C)C [Fucosterol]
  diminish the Amyloid-β depositions: up to 70%
